From US6835401B2, “Method of treating diseases caused by over-production of free-radicals” (Pharmaton SA, priority 2000, dated 2004)
For at least one compound, name, drawing or mass did not settle the structure. Some of these results come from one statement about several compounds together.

Assays:
[1] = system: glutathione peroxidase (GSH-PX); assay: Glutathione peroxidase (GSH-PX) activity in keratinocytes; type: cell-based, human
Protocol: Cultures were maintained at 37° C. in a humidified 5% CO2 atmosphere.

[2] = system: NCTC 2544 human keratinocyte cell line; assay: Keratinocyte cell growth and cell viability (LDH leakage)
[3] = system: NCTC 2544 human keratinocyte cell line; assay: CuOOH-induced cell death in keratinocytes; type: cell-based; conditions: 500 μM CuOOH, 24 h; 50 nM
[4] = system: NCTC 2544 human keratinocyte cell line; assay: CuOOH-induced intracellular oxidative stress (DCF formation); type: cell-based; conditions: 500 μM CuOOH, 24 h; lowest dose (50 Nm)

## O=[Se](O)O [sodium selenite]
[1]; 500 nM, control cells
  GSH-PX activity at 500 nM versus 50 nM: no further increase
[1]; UVB irradiation 50 mJ/cm^2
  extent of GSH-PX enzyme induction in UVB-exposed keratinocytes versus control cells: significantly enhanced
[2]; 50 and 500 nM Se doses
  cell viability (LDH leakage): over 95%
[2]; cultured keratinocytes
  growth-stimulating activity: no apparent growth-stimulating activity
[3]
  cell viability (protection from CuOOH-induced cell death): almost completely recovered
[4]
  prevention of DCF formation: totally prevents DCF formation
